This is one part of the list.
Experiments:
Assay in all cases: log2 fold change, soluble protein after heating vs DMSO (PISA); higher = thermal stabilisation; K562 cells, 10 uM, 30 min; active = over 0.2 and 3.5 SD of the protein, either way, in both replicates (recomputed)
[1] = compound: CN1CCN(CCOc2cc(OC3CCOCC3)c3c(Nc4c(Cl)ccc5c4OCO5)ncnc3c2)CC1 [saracatinib]
How it was run: (§1)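 Soluble protein was quantified by TMTpro 16plex LC-MS/MS after channel sums were equalised. It was obtained as the supernatant after 21,000xg for 90 min from pooled aliquots of K562 cells (2×10^6 cells/mL, 10 μM compound, 30 min) heated for 3 min across 48°C-58°C and extracted in PBS with 0.5% NP-40 at 4°C. Thermal stability values are relative to control samples and come from duplicates. They are given as log2 fold changes.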

Amino acid sequences for entries named in this document (tags omitted). A change or cut given only in a name is not applied to a line headed by its entry.
UniProt Q96DG6: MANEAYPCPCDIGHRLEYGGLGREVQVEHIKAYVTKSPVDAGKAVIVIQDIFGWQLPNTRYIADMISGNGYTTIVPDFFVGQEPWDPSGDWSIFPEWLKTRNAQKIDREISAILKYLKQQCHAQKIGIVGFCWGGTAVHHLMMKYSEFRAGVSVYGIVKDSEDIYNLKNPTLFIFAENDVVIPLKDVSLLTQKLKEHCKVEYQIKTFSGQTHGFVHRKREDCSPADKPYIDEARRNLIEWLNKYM
UniProt Q9H9A5, whole entry, looked up: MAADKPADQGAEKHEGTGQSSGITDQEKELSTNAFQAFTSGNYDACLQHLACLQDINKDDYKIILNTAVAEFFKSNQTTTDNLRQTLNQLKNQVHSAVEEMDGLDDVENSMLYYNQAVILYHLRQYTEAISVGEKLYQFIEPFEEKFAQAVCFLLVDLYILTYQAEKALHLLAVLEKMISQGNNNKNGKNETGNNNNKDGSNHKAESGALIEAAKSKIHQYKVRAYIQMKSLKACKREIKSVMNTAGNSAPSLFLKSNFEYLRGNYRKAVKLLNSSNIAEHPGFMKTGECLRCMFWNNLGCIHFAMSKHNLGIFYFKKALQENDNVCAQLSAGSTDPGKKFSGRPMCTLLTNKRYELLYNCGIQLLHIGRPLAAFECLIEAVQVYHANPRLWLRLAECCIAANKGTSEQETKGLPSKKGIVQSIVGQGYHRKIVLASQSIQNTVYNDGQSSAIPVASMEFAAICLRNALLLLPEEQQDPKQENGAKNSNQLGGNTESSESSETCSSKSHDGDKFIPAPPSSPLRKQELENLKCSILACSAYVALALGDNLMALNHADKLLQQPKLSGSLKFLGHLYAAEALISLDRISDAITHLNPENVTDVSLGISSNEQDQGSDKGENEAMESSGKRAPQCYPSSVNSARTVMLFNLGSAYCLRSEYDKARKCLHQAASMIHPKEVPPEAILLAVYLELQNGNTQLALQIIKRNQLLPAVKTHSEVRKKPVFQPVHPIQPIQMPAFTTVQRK
UniProt Q5EBM0: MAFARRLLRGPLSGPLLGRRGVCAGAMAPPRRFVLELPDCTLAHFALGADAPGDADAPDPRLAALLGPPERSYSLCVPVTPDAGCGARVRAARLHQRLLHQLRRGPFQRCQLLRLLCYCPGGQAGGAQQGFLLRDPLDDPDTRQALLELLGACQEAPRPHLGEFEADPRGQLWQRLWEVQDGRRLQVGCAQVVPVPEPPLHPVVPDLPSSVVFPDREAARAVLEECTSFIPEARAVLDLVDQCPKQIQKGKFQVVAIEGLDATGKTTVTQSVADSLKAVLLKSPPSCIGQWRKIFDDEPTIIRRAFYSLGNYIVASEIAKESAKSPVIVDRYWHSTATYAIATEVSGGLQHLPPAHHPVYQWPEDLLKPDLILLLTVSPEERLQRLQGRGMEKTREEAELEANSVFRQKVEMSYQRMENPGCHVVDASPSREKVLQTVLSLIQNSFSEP
UniProt P09543: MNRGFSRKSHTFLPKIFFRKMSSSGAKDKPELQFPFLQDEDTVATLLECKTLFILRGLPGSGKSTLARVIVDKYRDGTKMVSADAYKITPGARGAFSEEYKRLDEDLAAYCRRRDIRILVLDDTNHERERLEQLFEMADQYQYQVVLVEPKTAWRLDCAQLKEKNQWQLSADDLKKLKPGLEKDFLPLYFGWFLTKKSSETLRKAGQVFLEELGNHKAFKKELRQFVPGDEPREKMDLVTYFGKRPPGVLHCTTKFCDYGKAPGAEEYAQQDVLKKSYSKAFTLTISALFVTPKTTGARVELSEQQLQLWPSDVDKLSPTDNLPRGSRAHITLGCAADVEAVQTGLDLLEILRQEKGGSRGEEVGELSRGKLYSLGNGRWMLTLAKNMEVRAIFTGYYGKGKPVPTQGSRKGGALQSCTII
UniProt O15247: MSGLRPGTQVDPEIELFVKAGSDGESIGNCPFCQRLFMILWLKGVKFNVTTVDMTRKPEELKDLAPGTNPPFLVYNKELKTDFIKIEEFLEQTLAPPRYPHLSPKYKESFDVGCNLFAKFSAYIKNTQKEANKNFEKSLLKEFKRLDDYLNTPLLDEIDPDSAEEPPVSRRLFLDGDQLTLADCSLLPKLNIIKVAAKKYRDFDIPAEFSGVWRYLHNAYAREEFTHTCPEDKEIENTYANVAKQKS
UniProt Q9H8M5: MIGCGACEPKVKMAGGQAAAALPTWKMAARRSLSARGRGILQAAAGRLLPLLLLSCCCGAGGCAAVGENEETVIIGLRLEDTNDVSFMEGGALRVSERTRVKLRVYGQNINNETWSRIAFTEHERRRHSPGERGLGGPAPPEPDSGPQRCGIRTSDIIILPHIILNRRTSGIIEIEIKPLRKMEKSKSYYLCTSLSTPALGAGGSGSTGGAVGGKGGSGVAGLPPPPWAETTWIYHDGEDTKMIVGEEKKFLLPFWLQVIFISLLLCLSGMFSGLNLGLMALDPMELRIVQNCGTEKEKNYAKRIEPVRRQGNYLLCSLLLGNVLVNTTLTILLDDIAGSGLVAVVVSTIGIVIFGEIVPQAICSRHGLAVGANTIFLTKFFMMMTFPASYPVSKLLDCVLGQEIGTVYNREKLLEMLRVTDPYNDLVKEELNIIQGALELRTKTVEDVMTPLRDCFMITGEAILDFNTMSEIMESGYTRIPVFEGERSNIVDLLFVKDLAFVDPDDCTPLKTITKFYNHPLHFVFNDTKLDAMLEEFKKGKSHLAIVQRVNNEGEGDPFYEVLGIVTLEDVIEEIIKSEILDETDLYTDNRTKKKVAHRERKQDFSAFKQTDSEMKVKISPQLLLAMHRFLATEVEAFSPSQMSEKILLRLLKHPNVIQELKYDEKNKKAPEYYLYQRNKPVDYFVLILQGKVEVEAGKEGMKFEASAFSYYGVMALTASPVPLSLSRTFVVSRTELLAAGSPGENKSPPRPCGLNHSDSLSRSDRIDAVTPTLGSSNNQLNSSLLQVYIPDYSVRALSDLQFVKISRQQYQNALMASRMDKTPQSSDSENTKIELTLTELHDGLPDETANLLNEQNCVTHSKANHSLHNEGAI
UniProt Q99828: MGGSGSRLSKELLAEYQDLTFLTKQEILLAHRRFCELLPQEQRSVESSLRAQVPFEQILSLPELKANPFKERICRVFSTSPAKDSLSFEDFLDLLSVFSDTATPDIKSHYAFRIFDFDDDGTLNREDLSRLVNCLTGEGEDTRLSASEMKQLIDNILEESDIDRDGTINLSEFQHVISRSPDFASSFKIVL
UniProt Q9Y696: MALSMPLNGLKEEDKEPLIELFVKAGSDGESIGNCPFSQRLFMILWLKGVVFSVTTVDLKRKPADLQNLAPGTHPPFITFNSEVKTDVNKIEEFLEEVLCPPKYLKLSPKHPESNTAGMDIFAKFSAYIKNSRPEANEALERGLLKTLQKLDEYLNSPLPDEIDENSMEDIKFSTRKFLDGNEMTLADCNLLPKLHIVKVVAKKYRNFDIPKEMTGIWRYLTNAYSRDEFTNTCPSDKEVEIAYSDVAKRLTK
UniProt Q9Y2B0: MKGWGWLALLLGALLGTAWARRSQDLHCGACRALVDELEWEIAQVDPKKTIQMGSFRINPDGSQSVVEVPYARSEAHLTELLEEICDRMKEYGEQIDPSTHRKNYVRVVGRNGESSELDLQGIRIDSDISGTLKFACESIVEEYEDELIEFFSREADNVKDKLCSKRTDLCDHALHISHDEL
UniProt Q9H5X1: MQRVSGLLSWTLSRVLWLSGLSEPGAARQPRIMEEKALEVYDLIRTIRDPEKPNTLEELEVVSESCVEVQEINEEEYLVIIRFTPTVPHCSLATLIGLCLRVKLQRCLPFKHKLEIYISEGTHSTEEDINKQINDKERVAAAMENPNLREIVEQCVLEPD
UniProt Q9NRP2: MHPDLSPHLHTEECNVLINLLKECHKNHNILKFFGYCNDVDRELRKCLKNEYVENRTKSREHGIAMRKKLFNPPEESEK
UniProt Q96FZ7: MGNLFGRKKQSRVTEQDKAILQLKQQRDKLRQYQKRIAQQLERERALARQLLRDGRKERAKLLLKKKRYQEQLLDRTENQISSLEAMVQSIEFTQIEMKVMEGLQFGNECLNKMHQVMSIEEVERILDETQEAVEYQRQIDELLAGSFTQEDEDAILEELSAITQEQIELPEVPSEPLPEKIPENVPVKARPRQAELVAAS
UniProt P54105: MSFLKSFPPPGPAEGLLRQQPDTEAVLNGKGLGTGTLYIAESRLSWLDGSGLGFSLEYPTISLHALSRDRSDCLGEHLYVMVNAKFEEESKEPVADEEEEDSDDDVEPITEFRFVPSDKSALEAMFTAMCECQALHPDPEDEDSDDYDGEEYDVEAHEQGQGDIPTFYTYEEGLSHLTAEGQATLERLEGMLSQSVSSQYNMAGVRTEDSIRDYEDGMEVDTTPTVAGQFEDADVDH
UniProt Q00610: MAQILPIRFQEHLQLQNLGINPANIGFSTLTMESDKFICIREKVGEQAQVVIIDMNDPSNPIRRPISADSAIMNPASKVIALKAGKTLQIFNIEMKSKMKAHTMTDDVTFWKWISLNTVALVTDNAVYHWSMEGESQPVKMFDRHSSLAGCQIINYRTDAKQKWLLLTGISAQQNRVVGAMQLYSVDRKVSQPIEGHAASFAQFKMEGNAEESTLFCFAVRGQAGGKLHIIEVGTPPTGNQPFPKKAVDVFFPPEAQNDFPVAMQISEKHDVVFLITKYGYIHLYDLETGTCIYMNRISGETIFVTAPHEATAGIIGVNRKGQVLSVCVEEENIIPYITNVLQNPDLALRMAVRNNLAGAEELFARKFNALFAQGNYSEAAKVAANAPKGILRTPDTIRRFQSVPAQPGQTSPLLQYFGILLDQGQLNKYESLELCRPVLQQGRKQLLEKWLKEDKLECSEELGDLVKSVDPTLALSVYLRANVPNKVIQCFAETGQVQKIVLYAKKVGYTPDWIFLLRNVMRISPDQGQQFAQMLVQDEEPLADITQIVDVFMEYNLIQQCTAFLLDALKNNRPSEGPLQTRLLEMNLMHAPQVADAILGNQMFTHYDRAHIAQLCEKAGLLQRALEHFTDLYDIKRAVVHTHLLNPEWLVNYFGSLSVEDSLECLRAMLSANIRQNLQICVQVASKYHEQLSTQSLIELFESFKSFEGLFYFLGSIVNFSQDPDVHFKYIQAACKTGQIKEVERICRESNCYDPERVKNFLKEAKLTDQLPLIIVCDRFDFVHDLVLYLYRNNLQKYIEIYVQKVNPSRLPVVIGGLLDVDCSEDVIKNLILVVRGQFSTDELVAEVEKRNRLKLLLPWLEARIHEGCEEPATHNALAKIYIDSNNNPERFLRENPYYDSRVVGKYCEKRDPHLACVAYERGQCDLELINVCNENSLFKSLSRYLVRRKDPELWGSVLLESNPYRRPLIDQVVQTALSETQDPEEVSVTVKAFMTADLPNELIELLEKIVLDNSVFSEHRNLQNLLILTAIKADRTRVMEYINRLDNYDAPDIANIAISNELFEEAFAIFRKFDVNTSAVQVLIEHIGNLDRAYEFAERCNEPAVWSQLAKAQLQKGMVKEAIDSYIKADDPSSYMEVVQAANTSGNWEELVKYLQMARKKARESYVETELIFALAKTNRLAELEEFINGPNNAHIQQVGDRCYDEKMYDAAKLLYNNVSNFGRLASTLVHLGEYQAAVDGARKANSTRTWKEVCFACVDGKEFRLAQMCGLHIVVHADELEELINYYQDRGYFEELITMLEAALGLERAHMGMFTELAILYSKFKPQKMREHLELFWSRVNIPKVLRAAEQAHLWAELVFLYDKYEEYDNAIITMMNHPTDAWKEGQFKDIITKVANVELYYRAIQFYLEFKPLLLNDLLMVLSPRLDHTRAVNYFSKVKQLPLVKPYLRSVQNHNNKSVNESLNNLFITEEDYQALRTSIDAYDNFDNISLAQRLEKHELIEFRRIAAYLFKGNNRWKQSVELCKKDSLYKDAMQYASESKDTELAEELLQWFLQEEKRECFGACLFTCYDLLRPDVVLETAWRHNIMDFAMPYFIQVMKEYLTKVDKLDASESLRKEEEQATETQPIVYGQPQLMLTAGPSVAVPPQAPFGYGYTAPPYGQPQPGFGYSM
UniProt Q9GZY4: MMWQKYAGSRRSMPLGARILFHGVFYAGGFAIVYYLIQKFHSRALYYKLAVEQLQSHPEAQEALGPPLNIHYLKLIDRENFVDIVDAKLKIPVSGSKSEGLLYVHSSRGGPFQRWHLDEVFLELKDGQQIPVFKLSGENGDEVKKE
UniProt Q9H6Q4: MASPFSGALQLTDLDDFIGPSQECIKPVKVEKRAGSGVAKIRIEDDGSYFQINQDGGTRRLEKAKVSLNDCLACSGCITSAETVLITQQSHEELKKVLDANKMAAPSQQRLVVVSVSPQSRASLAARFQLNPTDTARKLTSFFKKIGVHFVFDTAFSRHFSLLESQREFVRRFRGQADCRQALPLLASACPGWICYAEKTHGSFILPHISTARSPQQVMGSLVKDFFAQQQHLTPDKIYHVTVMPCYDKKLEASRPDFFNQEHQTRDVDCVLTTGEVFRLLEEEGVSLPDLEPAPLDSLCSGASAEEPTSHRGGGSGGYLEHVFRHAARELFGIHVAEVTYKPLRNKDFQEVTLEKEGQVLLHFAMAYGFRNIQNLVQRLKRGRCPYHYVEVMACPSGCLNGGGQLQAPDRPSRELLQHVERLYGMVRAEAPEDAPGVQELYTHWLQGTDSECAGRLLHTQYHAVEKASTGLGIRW

[2] = compound: CN1CCN(c2nc(C3=C(c4c[nH]c5ccccc45)C(=O)NC3=O)c3ccccc3n2)CC1 [sotrastaurin]
How it was run: as §1

[3] = compound: CN1CC[C@H](c2c(O)cc(O)c3c(=O)cc(-c4ccccc4Cl)oc23)[C@H](O)C1 [alvocidib]
How it was run: as §1

[4] = compound: CN1CCc2c(c3ccccc3n2Cc2ccc(C(=O)NO)cc2)C1 [Tubastatin A]
How it was run: as §1

[5] = compound: CNC(=O)C1=CC=CC=C1NC2=NC(=NC=C2Cl)NC3=C(C=C(C=C3)N4CCOCC4)OC
How it was run: as §1

[6] = compound: CNC(=O)c1ccc(Nc2ncc(C(F)(F)F)c(NCc3nccnc3N(C)S(C)(=O)=O)n2)cc1 [defactinib]
How it was run: as §1

[7] = compound: CNCc1ccc(-c2[nH]c3cc(F)cc4c3c2CCNC4=O)cc1 [rucaparib]
How it was run: as §1

[8] = compound: CNc1nc(-c2ccc3c(N)n[nH]c3c2)cc(N2C[C@@H](C(=O)NC3CCCCC3)CC[C@H]2C)n1
How it was run: as §1

[9] = compound: COC(=O)N[C@@H](C)CNc1nccc(-c2cn(C(C)C)nc2-c2cc(Cl)cc(NS(C)(=O)=O)c2F)n1 [encorafenib]
How it was run: as §1

[10] = compound: COC(=O)[C@H](CCSC)NC(=O)C1=C(C=C(C=C1)NC[C@H](CS)N)C2=CC=CC=C2
How it was run: as §1

Measured: log2 fold change

CMBL (UniProt Q96DG6)
inactive: [1] -0.012 | [2] 0.053 | [3] 0.02 | [4] 0.15 | [5] -0.022 | [6] -0.005 | [7] -0.035 | [8] -0.02 | [9] -0.051 | [10] -0.007

CNOT10 isoform 6 (UniProt Q9H9A5)
inactive: [1] 0.04 | [2] -0.065 | [3] 0.028 | [4] 0.007 | [5] 0.013 | [6] -0.03 | [7] 0.053 | [8] 0.001 | [9] 0.07 | [10] -0.013

CLIC1 (UniProt O00299)
inactive: [1] 0.002 | [2] 0.02 | [3] -0.055 | [4] -0.056 | [5] 0.058 | [6] -0.02 | [7] 0.004 | [8] -0.027 | [9] 0.003 | [10] 0.016

CMPK2 (UniProt Q5EBM0)
inactive: [1] 0.013 | [2] -0.006 | [3] -0.07 | [4] -0.005 | [5] 0.008 | [6] -0.035 | [7] -0.006 | [8] 0.004 | [9] 0.031 | [10] 0

CNP (UniProt P09543)
inactive: [1] 0.003 | [2] 0.042 | [3] -0.024 | [4] 0.015 | [5] -0.061 | [6] 0.011 | [7] -0.005 | [8] -0.03 | [9] 0.014 | [10] -0.01

COL1A2 (UniProt P08123)
inactive: [1] 0.414 | [2] 0.096 | [3] 0.063 | [4] -0.054 | [5] -0.34 | [6] -0.037 | [7] -0.15 | [8] 0.142 | [9] 0.069 | [10] 0.222

CKMT2 (UniProt P17540)
inactive: [1] -0.007 | [2] 0.28 | [3] 0.087 | [4] -0.028 | [5] -0.03 | [6] -0.042 | [7] -0.069 | [8] -0.027 | [9] -0.025 | [10] 0.078

CINP isoform 3 (UniProt Q9BW66)
inactive: [1] -0.037 | [2] 0.035 | [3] 0.04 | [4] -0.013 | [5] -0.033 | [6] 0.021 | [7] 0.043 | [8] -0.088 | [9] -0.01 | [10] -0.02

CLIC2 (UniProt O15247)
inactive: [1] -0.042 | [2] -0.092 | [3] -0.132 | [4] 0.035 | [5] -0.032 | [6] -0.114 | [7] 0.059 | [8] 0.061 | [9] 0.102 | [10] -0.04

CLCC1 (UniProt Q96S66)
inactive: [1] -0.002 | [2] 0.028 | [3] -0.024 | [4] -0.021 | [5] -0.018 | [6] -0.027 | [7] -0.062 | [8] -0.058 | [9] -0.004 | [10] 0.029

2 consecutive records already listed, quoted:
CINP isoform 3 (UniProt Q9BW66)
inactive: [1] -0.037 | [2] 0.035 | [3] 0.04 | [4] -0.013 | [5] -0.033 | [6] 0.021 | [7] 0.043 | [8] -0.088 | [9] -0.01 | [10] -0.02

CLIC2 (UniProt O15247)
inactive: [1] -0.042 | [2] -0.092 | [3] -0.132 | [4] 0.035 | [5] -0.032 | [6] -0.114 | [7] 0.059 | [8] 0.061 | [9] 0.102 | [10] -0.04

The listing continues:

CNIH4 (UniProt Q9P003)
inactive: [1] 0.195 | [2] 0.023 | [3] -0.037 | [4] -0.025 | [5] -0.315 | [6] 0.018 | [7] -0.044 | [8] -0.023 | [9] -0.145 | [10] 0.042

CNNM2 (UniProt Q9H8M5)
inactive: [1] -0.011 | [2] 0 | [3] 0.073 | [4] 0.106 | [5] -0.075 | [6] 0.059 | [7] 0.059 | [8] 0.024 | [9] 0.061 | [10] 0.113

CIB1 isoform 2 (UniProt Q99828)
inactive: [1] -0.03 | [2] -0.071 | [3] -0.025 | [4] -0.017 | [5] -0.031 | [6] 0.012 | [7] 0.058 | [8] -0.024 | [9] -0.007 | [10] 0.053

CIAO1 (UniProt O76071)
inactive: [1] 0.003 | [2] 0.034 | [3] -0.068 | [4] -0.003 | [5] -0.057 | [6] 0.018 | [7] -0.075 | [8] -0.023 | [9] -0.031 | [10] 0.016

CLIC4 (UniProt Q9Y696)
inactive: [1] 0.008 | [2] 0.014 | [3] -0.024 | [4] -0.007 | [5] -0.002 | [6] -0.001 | [7] 0.002 | [8] -0.024 | [9] -0.012 | [10] 0.017

CNPY2 (UniProt Q9Y2B0)
inactive: [1] -0.009 | [2] 0.069 | [3] -0.092 | [4] -0.035 | [5] 0.001 | [6] 0.05 | [7] -0.037 | [8] -0.058 | [9] -0.001 | [10] -0.003

CNPY3 (UniProt Q9BT09)
inactive: [1] 0.013 | [2] 0.092 | [3] -0.084 | [4] -0.012 | [5] 0.055 | [6] 0.008 | [7] -0.046 | [8] -0.019 | [9] -0.017 | [10] 0.075

CNST (UniProt Q6PJW8)
inactive: [1] 0.022 | [2] -0.031 | [3] -0.043 | [4] -0.019 | [5] 0.004 | [6] -0.036 | [7] -0.012 | [8] -0.02 | [9] -0.023 | [10] 0.088

CLDND1 (UniProt Q9NY35)
inactive: [1] 0.055 | [2] -0.106 | [3] 0.18 | [4] -0.015 | [5] 0.063 | [6] 0.043 | [7] 0.004 | [8] 0.057 | [9] 0.052 | [10] 0.033

CIAO2A (UniProt Q9H5X1)
inactive: [1] 0.016 | [2] 0.019 | [3] -0.068 | [4] -0.015 | [5] -0.041 | [6] -0.034 | [7] -0.043 | [8] -0.066 | [9] -0.021 | [10] -0.015

COL15A1 (UniProt P39059)
inactive: [1] -0.236 | [2] 0.051 | [3] 0.005 | [4] -0.03 | [5] -0.014 | [6] -0.015 | [7] 0.075 | [8] 0.103 | [9] 0.069 | [10] 0.05

CMC2 (UniProt Q9NRP2)
inactive: [1] 0.113 | [2] 0.015 | [3] 0.073 | [4] -0.092 | [5] 0.055 | [6] -0.05 | [7] 0.001 | [8] -0.016 | [9] -0.054 | [10] 0.046

CHMP6 (UniProt Q96FZ7)
inactive: [1] 0.068 | [2] -0.015 | [3] -0.039 | [4] -0.003 | [5] 0.023 | [6] 0.005 | [7] -0.069 | [8] -0.023 | [9] -0.031 | [10] 0.027

CLNS1A (UniProt P54105)
inactive: [1] 0.035 | [2] -0.012 | [3] -0.034 | [4] -0.001 | [5] -0.002 | [6] -0.098 | [7] 0.008 | [8] 0.026 | [9] -0.008 | [10] -0.003

CISD1 (UniProt Q9NZ45)
inactive: [1] 0.035 | [2] 0.049 | [3] -0.014 | [4] -0.039 | [5] 0.021 | [6] -0.023 | [7] 0.012 | [8] -0.045 | [9] -0.019 | [10] 0.029

CLTC (UniProt Q00610)
inactive: [1] 0.209 | [2] -0.083 | [3] 0.182 | [4] -0.046 | [5] 0.174 | [6] 0.082 | [7] 0.029 | [8] -0.036 | [9] 0.04 | [10] -0.04

CLTA isoform 2 (UniProt P09496)
inactive: [1] 0.141 | [2] 0.037 | [3] 0.123 | [4] 0.024 | [5] 0.026 | [6] 0.101 | [7] -0.14 | [8] 0.014 | [9] 0.017 | [10] 0.042

COA1 (UniProt Q9GZY4)
inactive: [1] 0.065 | [2] 0.025 | [3] 0.012 | [4] -0.013 | [5] -0.028 | [6] 0 | [7] -0.03 | [8] -0.044 | [9] -0.029 | [10] 0.01

CIAO3 (UniProt Q9H6Q4)
inactive: [1] -0.06 | [2] 0.04 | [3] -0.091 | [4] 0.013 | [5] -0.07 | [6] -0.049 | [7] -0.021 | [8] -0.029 | [9] 0.004 | [10] -0.03

From the supplement of paper PMC10849652
